± gives the standard error. Many of these values have a large error.
B1: glmS ribozyme (parent)
chain: AUAAAAGCGCCAGAACUACAGAAAUGUAGUUGACGAGGAGGAGGUUUAUCGAAUUUUCGGCGGAUGCCUCCAAA

Variants of: B1
Assay: self-cleavage kobs at 40 uM GlcN6P; higher = faster cleavage; RNA array
Details: with glucosamine-6-phosphate
Procedure, shortened: (§1)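 Weighted Michaelis–Menten fits across concentrations supplied kcat and KM, based on kobs from one- or two-exponential decay fits to normalised per-tile medians. The data came from barcoded ribozyme variants transcribed in situ by E. coli RNA polymerase on sequenced MiSeq chips and tracked at 37 °C by a hybridised Cy3 probe. Glucosamine-6-phosphate (40 μM to 10 mM) in HEPES/KCl/Mg(OAc)2 buffer was flowed in.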

Variant | self-cleavage kobs at 40 uM GlcN6P
G7U C70A | 0.000149 ± 8.8e-05 s⁻¹
G7U U55G C70G | 4.68e-05 ± 4.2e-05 s⁻¹
C8A U69A | 2.7e-05 ± 2.3e-05 s⁻¹
C8G A36U C70G | 2.57e-05 ± 2.2e-05 s⁻¹
C8G G29U U69G | 7.94e-05 ± 4.1e-05 s⁻¹
C8G G32A A36U C61A G63U C68G | 3.13e-05 ± 2.4e-05 s⁻¹
C8G G51U U69G | 7.88e-05 ± 5e-05 s⁻¹
C8U C16G C34G C67G | 3.44e-05 ± 1.8e-05 s⁻¹
C8U C34U U55G C70G C71U | 3.21e-05 ± 3.1e-05 s⁻¹
G9A U69G | 5.56e-05 ± 2.9e-05 s⁻¹
C10A A39G C61A C68A | 5.23e-05 ± 2.8e-05 s⁻¹
C10A A52U G62U C70G | 3.33e-05 ± 2.1e-05 s⁻¹
C10A C58G G60A U69G | 3.02e-05 ± 1.5e-05 s⁻¹
C10A U46G C50U C68U | 3.01e-05 ± 2.7e-05 s⁻¹
C10G G38A C50G | 2.88e-05 ± 2.3e-05 s⁻¹
C10U U47G A52U U69A | 2.79e-05 ± 1.5e-05 s⁻¹
C11A A12C U57G C67G | 3.23e-05 ± 2.2e-05 s⁻¹
C11A A36U U56A C68G C70A | 3.05e-05 ± 2.9e-05 s⁻¹
C11A G13U A53G C67U C68G | 3.46e-05 ± 2.7e-05 s⁻¹
C11A G37C U57A C67G | 3.02e-05 ± 2.9e-05 s⁻¹
C11A U49C A52G C67G | 3e-05 ± 2.8e-05 s⁻¹
C11A U49C U65G C68U | 3.66e-05 ± 2.3e-05 s⁻¹
C11G C50U C61U C70G | 2.97e-05 ± 2.4e-05 s⁻¹
C11G G51A U65A C67G | 2.33e-05 ± 2.2e-05 s⁻¹

Quoted at random: 4 entries already listed, in no set order.
Variant | self-cleavage kobs at 40 uM GlcN6P
C11A A36U U56A C68G C70A | 3.05e-05 ± 2.9e-05 s⁻¹
C10A A39G C61A C68A | 5.23e-05 ± 2.8e-05 s⁻¹
G7U U55G C70G | 4.68e-05 ± 4.2e-05 s⁻¹
C10A C58G G60A U69G | 3.02e-05 ± 1.5e-05 s⁻¹

More results

Variant | self-cleavage kobs at 40 uM GlcN6P
C11G U30C G51U C61G U69A | 2.34e-05 ± 2.3e-05 s⁻¹
C11U A12G A14G G26U | 2.79e-05 ± 2.5e-05 s⁻¹
C11U A15U | 2.65e-05 ± 1.4e-05 s⁻¹
C11U A39U | 1.49e-05 ± 1.5e-05 s⁻¹
C11U A42G U54A | 4.09e-05 ± 2.7e-05 s⁻¹
C11U C16G C70G | 4.36e-05 ± 2.6e-05 s⁻¹
C11U C67U | 2.43e-05 ± 1.3e-05 s⁻¹
C11U C68U | 1.86e-05 ± 1.5e-05 s⁻¹
C11U C70G | 2.11e-05 ± 1.4e-05 s⁻¹
C11U C71G | 2.42e-05 ± 1.8e-05 s⁻¹
C11U U55C | 4.06e-05 ± 2.1e-05 s⁻¹
C11U U69A | 2.84e-05 ± 1.5e-05 s⁻¹
C11U U69C | 3.1e-05 ± 1.9e-05 s⁻¹
C11U U69C C70G | 3.69e-05 ± 1.9e-05 s⁻¹
A12C A15G C50G U56G C67G | 4.09e-05 ± 2.1e-05 s⁻¹
A12C G29C C70U | 2.09e-05 ± 1.6e-05 s⁻¹
A12C U55A U69C | 1.61e-05 ± 1.5e-05 s⁻¹
A12G A14G A39G C50A U54G C61A C68G C70U | 4.43e-05 ± 3.3e-05 s⁻¹
A12G A39G | 1.88e-05 ± 1.5e-05 s⁻¹
A12G U55C | 2.33e-05 ± 2.2e-05 s⁻¹
A12G U55G | 2.93e-05 ± 1.6e-05 s⁻¹
A12U A14G G41A A42G | 4.94e-05 ± 3.1e-05 s⁻¹
A12U A15U G29A | 4.66e-05 ± 2.4e-05 s⁻¹
A12U A42U | 1.58e-05 ± 1.2e-05 s⁻¹

Variant | self-cleavage kobs at 40 uM GlcN6P
A12U G37A G40C | 3.31e-05 ± 1.7e-05 s⁻¹
G13A C16U C58G C67G | 3.42e-05 ± 3e-05 s⁻¹
G13A C50G G66U | 0.000522 ± 0.00027 s⁻¹
G13A U31C | 1.08e-05 ± 1e-05 s⁻¹
G13A U45A | 2.35e-05 ± 1.4e-05 s⁻¹
G13C A14G U69G | 3.32e-05 ± 2.1e-05 s⁻¹
G13U A53U | 1.76e-05 ± 9.6e-06 s⁻¹
G13U A64G | 1.27e-05 ± 8.4e-06 s⁻¹
G13U C67U | 1.73e-05 ± 1.2e-05 s⁻¹
G13U U31C | 1.89e-05 ± 1.6e-05 s⁻¹
G13U U31C C70U | 2.98e-05 ± 2.1e-05 s⁻¹
A14C C50G | 2.09e-05 ± 1.6e-05 s⁻¹
A14C C70G | 2.38e-05 ± 1.4e-05 s⁻¹
A14C G40U A53G | 1.66e-05 ± 1.4e-05 s⁻¹
A14C U30C A42G C70G | 3.43e-05 ± 2.9e-05 s⁻¹
A14C U45C A64G G66A | 2.42e-05 ± 2.3e-05 s⁻¹
A14C U69A | 1.97e-05 ± 1.9e-05 s⁻¹
A14G A15G U47C U55A C70G | 3.78e-05 ± 2.6e-05 s⁻¹
A14G C16A G29C A53G | 3.44e-05 ± 1.9e-05 s⁻¹
A14U C68G C70U | 2.54e-05 ± 2e-05 s⁻¹
A14U C70A | 1.71e-05 ± 1.4e-05 s⁻¹
A14U G37A | 2.98e-05 ± 1.8e-05 s⁻¹
A14U U45G | 1.25e-05 ± 1.2e-05 s⁻¹

Variants of: B1
Assay: self-cleavage kobs at 2500 uM GlcN6P; higher = faster cleavage; RNA array
Details: with glucosamine-6-phosphate
Procedure, shortened: as §1

Variant | self-cleavage kobs at 2500 uM GlcN6P
G7U C70A | 2.82e-05 ± 1.8e-05 s⁻¹
C10A U46G C50U C68U | 0.00195 ± 0.0018 s⁻¹
C11A A36U U56A C68G C70A | 5.37e-05 ± 3.2e-05 s⁻¹
C11U A42G U54A | 0.000509 ± 0.00027 s⁻¹
G13A C50G G66U | 6.18e-05 ± 3.4e-05 s⁻¹

Variants of: B1
Assay: self-cleavage kobs at 10000 uM GlcN6P; higher = faster cleavage; RNA array
Details: with glucosamine-6-phosphate
Procedure, shortened: as §1

Variant | self-cleavage kobs at 10000 uM GlcN6P
G7U C70A | 6.61e-05 ± 4.3e-05 s⁻¹
G7U U55G C70G | 3.57e-05 ± 2e-05 s⁻¹
C8U C16G C34G C67G | 2.65e-05 ± 1.9e-05 s⁻¹
C10A A39G C61A C68A | 2.34e-05 ± 2.1e-05 s⁻¹
C10A U46G C50U C68U | 3.15e-05 ± 1.8e-05 s⁻¹
C11A G37C U57A C67G | 5.19e-05 ± 2.7e-05 s⁻¹
C11G G51A U65A C67G | 2.47e-05 ± 1.8e-05 s⁻¹
C11G U30C G51U C61G U69A | 2.51e-05 ± 1.6e-05 s⁻¹
C11U U69C C70G | 1.97e-05 ± 1.9e-05 s⁻¹
G13A C16U C58G C67G | 2.28e-05 ± 1.5e-05 s⁻¹
A14C C50G | 1.54e-05 ± 1.5e-05 s⁻¹

Variants of: B1
Assay: self-cleavage kobs at 640 uM GlcN6P; higher = faster cleavage; RNA array
Details: with glucosamine-6-phosphate
Procedure, shortened: as §1

Variant | self-cleavage kobs at 640 uM GlcN6P
C10A U46G C50U C68U | 4.95e-05 ± 2.8e-05 s⁻¹
C10U U47G A52U U69A | 3.76e-05 ± 2e-05 s⁻¹
C11U C16G C70G | 0.000216 ± 0.00011 s⁻¹
G13A C50G G66U | 0.000406 ± 0.00023 s⁻¹
A14U C68G C70U | 4e-05 ± 3.6e-05 s⁻¹

Variants of: B1
Assay: self-cleavage kobs at 160 uM GlcN6P; higher = faster cleavage; RNA array
Details: with glucosamine-6-phosphate
Procedure, shortened: as §1

Variant | self-cleavage kobs at 160 uM GlcN6P
C11G U30C G51U C61G U69A | 5.89e-05 ± 3.3e-05 s⁻¹
C11U C71G | 2.64e-05 ± 1.5e-05 s⁻¹
A14U C68G C70U | 3.25e-05 ± 2.1e-05 s⁻¹
